Measured values taken from PMC6131785.
No constants are given. Whether binding was seen depends on the method and setting. In cells and extracts the contact can be indirect. Some results given as binding are weak or reduced against the parent protein; the word gives no strength. Each block holds one molecule with its values, some of them ahead of it.

Chains of the proteins cited; added tags and fusions are not shown.
UniProt P45983: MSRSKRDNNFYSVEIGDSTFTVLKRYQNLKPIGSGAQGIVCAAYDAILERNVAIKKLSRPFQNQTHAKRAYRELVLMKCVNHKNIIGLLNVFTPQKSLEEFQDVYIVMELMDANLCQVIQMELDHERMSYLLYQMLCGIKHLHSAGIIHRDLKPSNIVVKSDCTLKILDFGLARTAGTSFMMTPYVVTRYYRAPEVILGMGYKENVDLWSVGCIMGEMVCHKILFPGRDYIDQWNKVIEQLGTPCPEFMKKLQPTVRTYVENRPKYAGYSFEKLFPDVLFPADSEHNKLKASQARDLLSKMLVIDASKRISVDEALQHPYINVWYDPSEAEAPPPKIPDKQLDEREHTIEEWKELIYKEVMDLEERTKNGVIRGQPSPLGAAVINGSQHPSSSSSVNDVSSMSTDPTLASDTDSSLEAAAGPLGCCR
UniProt Q91Y86: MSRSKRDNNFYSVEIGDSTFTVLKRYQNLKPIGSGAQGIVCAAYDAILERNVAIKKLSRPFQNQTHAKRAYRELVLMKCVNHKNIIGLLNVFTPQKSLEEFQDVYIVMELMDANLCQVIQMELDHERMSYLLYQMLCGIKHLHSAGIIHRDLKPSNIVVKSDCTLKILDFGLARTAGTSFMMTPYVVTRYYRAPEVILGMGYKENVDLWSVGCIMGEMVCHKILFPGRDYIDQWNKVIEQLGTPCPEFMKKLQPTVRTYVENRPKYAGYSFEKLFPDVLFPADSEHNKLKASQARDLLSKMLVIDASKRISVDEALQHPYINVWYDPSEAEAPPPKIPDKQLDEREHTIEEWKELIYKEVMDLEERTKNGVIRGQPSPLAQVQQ

How the values were obtained:
[1] = target: Flag-JNK1 (c-Jun N-terminal kinase 1) (UniProt P45983); test: co-IP; HEK 293T cells co-transfected with HA-FAF1 and Flag-JNK1, untreated or oxygen glucose deprivation for 30 min; whole cell lysates immunoprecipitated with anti-Flag antibody, immunoblot
[2] = target: endogenous JNK1 of Faf1+/+ mouse embryonic fibroblasts (mouse (endogenous in MEFs)) (UniProt Q91Y86); test: co-IP; endogenous proteins; Faf1+/+ MEFs treated with oxygen glucose deprivation for the indicated times; lysates immunoprecipitated with anti-JNK1 antibody, immunoblot
[3] = target: endogenous JNK1 of Faf1+/+ mouse embryonic fibroblasts (mouse (endogenous in MEFs)) (UniProt Q91Y86); test: condition: only 2 h after oxygen glucose deprivation; co-IP; endogenous proteins; Faf1+/+ MEFs 2 h after oxygen glucose deprivation; lysates immunoprecipitated with anti-JNK1 antibody, immunoblot
[4] = target: endogenous JNK1 of RGC5 cells (not stated (endogenous in RGC5 cells)) (UniProt Q91Y86); test: co-IP; endogenous proteins; RGC5 cells treated with oxygen glucose deprivation for the indicated times; whole cell lysates immunoprecipitated with anti-JNK1 antibody, immunoblot

binding [1]: binds
Molecule: HA-FAF1 (Fas-associated factor 1) (from UniProt Q9UNN5 1-650)

binding [2]: binds
binding [3]: no binding
B1: endogenous FAF1 of Faf1+/+ mouse embryonic fibroblasts (protein, UniProt P54731 1-649)
chain: MASNMDREMILADFQACTGIENIDEAITLLEQNNWDLVAAINGVIPQENGILQSDFGGETMPGPTFDPASHPAPASTPSSSAFRPVMPSRQIVERQPRMLDFRVEYRDRNVDVVLEDSCTVGEIKQILENELQIPVPKMLLKGWKTGDVEDSTVLKSLHLPKNNSLYVLTPDLPPPSSSSHAGALQESLNQNFMLIITHREVQREYNLNFSGSSTVQEVKRNVYDLTSIPVRHQLWEGWPASATDDSMCLAESGLSYPCHRLTVGRRTSPVQTREQSEEQSTDVHMVSDSDGDDFEDASEFGVDDGEVFGMASSTLRKSPMMPENAENEGDALLQFTAEFSSRYGDCHPVFFIGSLEAAFQEAFYVKARDRKLLAIYLHHDESVLTNVFCSQMLCAESIVSYLSQNFITWAWDLTKDTNRARFLTMCNRHFGSVIAQTIRTQKTDQFPLFLIIMGKRSSNEVLNVIQGNTTVDELMMRLMAAMEIFSAQQQEDIKDEDEREARENVKREQDEAYRLSLEADRAKREAHEREMAEQFRLEQIRKEQEEEREAIRLSLEQALPPEPKEENAEPVSKLRIRTPSGEFLERRFLASNKLQIVFDFVASKGFPWDEFKLLSTFPRRDVTQLDPNKSLLEVNLFPQETLFLQAKE

binding [4]: binds
B2: endogenous FAF1 of RGC5 cells (protein, UniProt P54731 1-649)
chain: B1 chain
